Screening data, single-dose tests

T. brucei: 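Whole-parasite assay of Trypanosoma brucei over 72 hours; the read-out is not stated. Compounds at 30 µM. Direction is inferred from retests: higher values go with stronger inhibition. Values scatter widely below zero; nearly all retest evidence comes from the higher of the two concentrations used. Size under these conditions: about 64,000 compounds, about 940 of them at 50% or above in at least one test.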
Toxoplasma: 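Assay of Toxoplasma gondii numbers, read through their beta-galactosidase reporter with a colour substrate. Tested at 10 µM. The record gives no direction; the compounds picked for IC50 retests had high values, so higher reads as fewer parasites. About 67,000 compounds were tested under these conditions; 0.38% (about 260) showed 50% or more at least once.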

Results are given as percent effect. The controls that fix the scale are not given in the record; negative values are as filed. This is an unselected part of the compounds tested. A dash means the value is not listed here; it may have been measured.

| structure | T. brucei | Toxoplasma |
|---|---|---|
| `O=C(c1nn(-c2ccccc2F)cc1O)N1CCCSCC1` | -14.31% | -16.5% |
| `CC(O)CN1CCC(CN(C)CC(=O)NC(C)C)CC1` (centres unmarked) | 5.571% | 5.447% |
| `O=C(NCCNc1ncccn1)C1CCCC1` | -22.38% | -16.33% |
| `CN(C)c1ccc(C(=O)N2CCCC(n3cccn3)C2)nn1` (centres unmarked) | 16.93% | 0.8309% |
| `C[C@H]1CN(C(=O)N(C)C)C[C@@]12CCN(c1ccsc1)C2=O` | -235.1% | -5.496% |
| `CCOC(=O)N1CCN(C(=O)c2snnc2-c2ccccc2)CC1` | -4.094% | 0.03994% |
| `O=C(Cn1nc2c(cc1=O)CCCC2)N[C@@H](C(=O)O)c1ccccc1` | 13.38% | -2.869% |
| `CC(C)(C)C(=O)NS(=O)(=O)c1ccc(C#N)cc1C(F)(F)F` | 0.8126% | 3.274% |
| `Cc1cc(NCCNc2ncccc2C)n2nc(C)cc2n1` | -0.1798% | -16.82% |
| `O=C(Cc1csc(-c2ccco2)n1)N1CCCC1Cn1cccn1` (centres unmarked) | 13.81% | 1.042% |
| `c1ccc(-c2nc(CN3CCc4c(ncn4C4CC4)C3)cs2)cc1` | 1.966% | -0.2225% |
| `COCCN1CCN(c2ccc(CN(C)C)cn2)CC1` | -3.174% | 14.61% |
| `O=C(c1ccc(O)cn1)N1CCOC(Cc2cccc(C(F)(F)F)c2)C1` (centres unmarked) | -236.6% | -4.62% |
| `CC(C)NC(=O)c1cccc(Oc2ccc3nncn3n2)c1` | -20.16% | -8.25% |
| `Cc1ccc(CN2CCOC3(CCN(C(=O)C4CCOC4)CC3)C2)cc1.O=C(O)C(F)(F)F` (centres unmarked) | -28.72% | 10.65% |
| `N#CCCCS(=O)(=O)NC(=O)c1cccc(Cl)c1F` | -1.595% | -1.427% |
| `CCC(=O)N1CCC2(CC1)CC(NC(=O)N(C)C)c1cc(C)ccc12` (centres unmarked) | -4.637% | -7.964% |
| `Cc1cccc(-c2c[nH]c(C3CCCN3)n2)c1.Cl.Cl` (centres unmarked) | -14.79% | 1.51% |
| `CCc1nc(C2CCCN2C(=O)c2ccc3c(c2)nnn3CC)no1` (centres unmarked) | -6.72% | 5.532% |
| `[H][C@]12CCCCN1CCC[C@H]2CCC(=O)N1Cc2nc(C)[nH]c(=O)c2C1` | -112.1% | 19.34% |
| `Cc1cccc2c1cnn2CCCNC(=O)c1cnn(C)c1` | -25.82% | 5.051% |
| `O=C(CCc1nccs1)N1CCN(c2ncccn2)CC1` | -0.1799% | -1.595% |
| `Cn1ncc(Cl)c1C(=O)N1CCC(c2nnsc2S(C)(=O)=O)CC1` | 0.9722% | -9.571% |
| `O=C(O)C(F)(F)F.[H][C@]12CCN(C(=O)Cc3ccccc3)C[C@@]1([H])OCCN(CCOC)C2` | -31.09% | -2.331% |
| `[H][C@@]12CCN(Cc3ccoc3)C[C@]1([H])OCCN(c1cccnc1)C2=O` | -11.07% | -8.196% |
| `COCc1ccccc1CNC(=O)CN1CCCC1c1noc(C)n1` (centres unmarked) | - | 1.993% |
| `Cc1nc(CN2CCCC2c2noc(C3CC3)n2)nc2ccccc12` (centres unmarked) | - | -2.126% |
| `O=C(NCC1CCOC1)c1csc(-c2ccco2)n1` (centres unmarked) | 14.58% | 3.917% |
| `[H][C@@]12CCC(=O)N(CC3CCNCC3)[C@]1([H])CCN(Cc1cnn(C)c1)C2` | -36.37% | -3.98% |
| `O=C(NCC1(Sc2ccccc2)CC1)c1ccc(=O)[nH]n1` | -24.08% | -9.6% |
| `Cc1c(C(=O)NCCC(=O)N2CCOCC2)oc2c(C)cccc12` | -23.74% | -2.881% |
| `Cc1cnn(C2CN(Cc3noc(C)n3)C2)c1` | -79.6% | 0.5963% |
| `COc1cccc(CNC(CN2CCN(C)CC2)c2ccccc2)c1` (centres unmarked) | -23.58% | 1.648% |
| `O=C(O)COCC(=O)NC1CC2(CCCCC2)Oc2ccccc21` (centres unmarked) | -49.21% | 10.8% |
| `CN(C)c1ncccc1CNS(=O)(=O)c1ccc(F)cc1F` | - | -0.2443% |
| `O=C(O)C(F)(F)F.[H][C@@]12CCN(C(=O)c3cnn(C)c3)[C@@]1([H])CCN2c1ncc(F)cn1` | -46.96% | 3.346% |
| `[H][C@@]12CN(Cc3ccccc3O)C[C@]1([H])OCC(=O)N2Cc1nccn1C` | -6.824% | 5.855% |
| `[H][C@@]12OCCN(Cc3cccc(F)c3)[C@@]1([H])CC[C@@H]2OCc1ccccn1` | 6.827% | 3.118% |
| `O=S(=O)(NC1CCC2(CC1)OCCO2)c1ccccc1Br` | -6.248% | 3.333% |
| `Cc1cc(C(=O)N2CC[C@](C)(O)[C@H](C)C2)c(C)n1C` | -52.35% | 22.16% |
| `CN(C)S(=O)(=O)c1ccc(-c2nc(C#N)c(NC3CC3)o2)o1` | -26.91% | -1.829% |
| `NC(=O)c1cccc(CN2CCc3c(ncn3C3CC3)C2)c1` | - | 83.44% |
| `CCNc1ncc(CN2CCOC(Cc3cccc(OC)c3)C2)cn1` (centres unmarked) | -70.83% | -6.418% |
| `Cc1ccc(CNC(=O)C2CCCCN2C(=O)OC(C)(C)C)cn1` (centres unmarked) | -14.62% | 5.247% |
| `Cc1noc(C)c1S(=O)(=O)N1C[C@@H](C(=O)O)[C@H](c2ccccn2)C1` | -16.01% | 4.327% |
| `Cc1cc(N2CCN(C(=O)c3cnn(C(C)C)c3)CC2)cc(C)n1` | -17.09% | -34.06% |
| `CCC(CC)n1nc(C)cc1NC(=O)C1CCCO1` (centres unmarked) | -19.98% | 0.5774% |
| `CCCc1nc(N2CCN(Cc3ccccn3)CC2)c2cnn(C)c2n1` | 36.81% | 3.279% |
| `COCc1nc(CNC2CCCc3c2cnn3C(C)(C)C)cs1` (centres unmarked) | -9.501% | -3.995% |
| `COc1ccc(C(C)NC(=O)C2CCN(S(C)(=O)=O)CC2)cc1C` (centres unmarked) | -11.8% | 2.803% |
| `O=C(c1ccc(Cl)cc1)N1CCn2c(nn(-c3ccc(Cl)cc3)c2=O)C1` | - | 14.75% |
| `COc1ccc(C(C(=O)O)N2CCCN(C3CCCCC3)CC2)cn1` (centres unmarked) | -24.3% | 0.2658% |
| `Cl.NC(=O)COc1ccc(CNCc2ccc(F)cc2)cc1` | -4.893% | 5.492% |
| `CCN(CC)CC1CN(Cc2ccco2)Cc2nccn2C1` (centres unmarked) | 5.892% | -17.82% |
| `CN(C)C(=O)CO[C@H]1CO[C@@]2(CCN(Cc3ccsc3)C2)C1.O=C(O)C(F)(F)F` | -4.788% | 18.44% |
| `CN(C)c1nccc(-c2c[nH][nH]c2=O)n1` | -2.187% | -5.745% |
| `COc1cccc(CNC(Cc2cccs2)c2nc(C)c(C)s2)c1OC.Cl` (centres unmarked) | -32.09% | 15.25% |
| `Cc1cc(C)c2[nH]c(CN3CCCC(N4CCOCC4)C3)cc(=O)c2c1` (centres unmarked) | -49.81% | -3.823% |
| `O=C(NCCc1ccncc1)c1ccc(N2CCOCC2)cc1` | -13.3% | -5.827% |
| `Cc1cc(C)c(C(=O)N2CCC3(CCCN(CC(C)(C)C)C3)C2)[nH]1` (centres unmarked) | 1.895% | -0.5165% |
| `CC(O)CCN(C)C(=O)Nc1ccc(Br)cc1` (centres unmarked) | - | 17.13% |
| `COC(=O)N1CCCC(C(=O)NCCc2c[nH]c3cc(C)ccc23)C1` (centres unmarked) | 11.59% | - |
| `CCC(C)(COc1ncccc1Cl)NCC(=O)NC1CCCCC1` (centres unmarked) | -25.93% | 2.879% |
| `CC(C)Oc1ncnc2c1CCN(Cc1ccco1)CC2.O=C(O)C(F)(F)F` | -3.581% | 5.911% |
| `COCCN1CCCCC12CC(=O)N(c1ccccc1OC)C2.O=C(O)C(F)(F)F` (centres unmarked) | -76.51% | 5.627% |

The last 7 entries again:

{"structure": "O=C(NCCc1ccncc1)c1ccc(N2CCOCC2)cc1", "T. brucei": -13.3, "Toxoplasma": -5.827}
{"structure": "Cc1cc(C)c(C(=O)N2CCC3(CCCN(CC(C)(C)C)C3)C2)[nH]1", "stereo": "centres unmarked", "T. brucei": 1.895, "Toxoplasma": -0.5165}
{"structure": "CC(O)CCN(C)C(=O)Nc1ccc(Br)cc1", "stereo": "centres unmarked", "Toxoplasma": 17.13}
{"structure": "COC(=O)N1CCCC(C(=O)NCCc2c[nH]c3cc(C)ccc23)C1", "stereo": "centres unmarked", "T. brucei": 11.59}
{"structure": "CCC(C)(COc1ncccc1Cl)NCC(=O)NC1CCCCC1", "stereo": "centres unmarked", "T. brucei": -25.93, "Toxoplasma": 2.879}
{"structure": "CC(C)Oc1ncnc2c1CCN(Cc1ccco1)CC2.O=C(O)C(F)(F)F", "T. brucei": -3.581, "Toxoplasma": 5.911}
{"structure": "COCCN1CCCCC12CC(=O)N(c1ccccc1OC)C2.O=C(O)C(F)(F)F", "stereo": "centres unmarked", "T. brucei": -76.51, "Toxoplasma": 5.627}

Source: ChEMBL document CHEMBL3988442, “University of Dundee, Small-Polar-MMV Screening Library” (2021).